Many values rest on one well or one pass, so single values are uncertain.
Compound: [O-][N+](C(C1=C(C(O)=C2)NC(C(C=C3)=CC=C3Cl)C4C1C=CC4)=C2Cl)=O
Assay: melting temperature shift (compound 7 minus DMSO); higher = compound stabilises the protein
Details: 10 µM
Protocol: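 Thermal proteome profiling (TMT mass spectrometry) in intact DAOY medulloblastoma cells or DAOY lysates treated with 10 µM compound 7 or DMSO, heated at 10 temperatures from 40.5 to 73.8 °C for 3 min. Melting curves were fitted with the Bioconductor TPP package, and the melting point difference between compound and vehicle is reported per protein (single curve per condition).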

The chains behind the UniProt entries cited, without tags or fusion partners. Where a name states a change or a piece, a line headed by the entry shows the natural chain unless it says otherwise.
UniProt Q9NZJ6: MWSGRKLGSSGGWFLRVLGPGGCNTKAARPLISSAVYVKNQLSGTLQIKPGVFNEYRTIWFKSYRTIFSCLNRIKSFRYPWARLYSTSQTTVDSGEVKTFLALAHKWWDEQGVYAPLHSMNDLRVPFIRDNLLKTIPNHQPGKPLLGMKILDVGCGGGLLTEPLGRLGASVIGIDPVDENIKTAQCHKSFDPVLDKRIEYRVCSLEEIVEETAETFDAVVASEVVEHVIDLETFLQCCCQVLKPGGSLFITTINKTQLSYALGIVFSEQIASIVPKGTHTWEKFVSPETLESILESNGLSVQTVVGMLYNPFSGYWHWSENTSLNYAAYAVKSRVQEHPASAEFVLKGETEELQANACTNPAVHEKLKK
UniProt P51790: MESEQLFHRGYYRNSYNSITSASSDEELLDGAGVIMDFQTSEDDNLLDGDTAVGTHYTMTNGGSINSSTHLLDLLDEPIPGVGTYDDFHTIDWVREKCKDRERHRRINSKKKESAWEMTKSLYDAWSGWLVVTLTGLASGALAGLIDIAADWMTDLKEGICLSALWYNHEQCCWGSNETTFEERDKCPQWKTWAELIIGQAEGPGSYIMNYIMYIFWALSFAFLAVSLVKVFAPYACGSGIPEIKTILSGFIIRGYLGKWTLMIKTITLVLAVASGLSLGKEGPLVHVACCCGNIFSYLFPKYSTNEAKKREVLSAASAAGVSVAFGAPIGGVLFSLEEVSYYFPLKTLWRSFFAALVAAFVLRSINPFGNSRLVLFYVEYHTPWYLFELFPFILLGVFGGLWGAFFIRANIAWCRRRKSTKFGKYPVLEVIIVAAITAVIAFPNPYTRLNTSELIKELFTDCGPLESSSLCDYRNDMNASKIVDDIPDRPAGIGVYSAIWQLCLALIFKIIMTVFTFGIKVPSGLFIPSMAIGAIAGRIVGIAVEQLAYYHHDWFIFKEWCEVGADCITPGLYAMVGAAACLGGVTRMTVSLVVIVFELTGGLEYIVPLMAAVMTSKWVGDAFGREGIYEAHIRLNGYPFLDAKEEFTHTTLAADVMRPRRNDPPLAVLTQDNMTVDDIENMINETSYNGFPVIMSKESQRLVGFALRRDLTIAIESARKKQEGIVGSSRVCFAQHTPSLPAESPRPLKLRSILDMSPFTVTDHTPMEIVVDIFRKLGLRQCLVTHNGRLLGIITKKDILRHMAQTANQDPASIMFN
UniProt Q15393: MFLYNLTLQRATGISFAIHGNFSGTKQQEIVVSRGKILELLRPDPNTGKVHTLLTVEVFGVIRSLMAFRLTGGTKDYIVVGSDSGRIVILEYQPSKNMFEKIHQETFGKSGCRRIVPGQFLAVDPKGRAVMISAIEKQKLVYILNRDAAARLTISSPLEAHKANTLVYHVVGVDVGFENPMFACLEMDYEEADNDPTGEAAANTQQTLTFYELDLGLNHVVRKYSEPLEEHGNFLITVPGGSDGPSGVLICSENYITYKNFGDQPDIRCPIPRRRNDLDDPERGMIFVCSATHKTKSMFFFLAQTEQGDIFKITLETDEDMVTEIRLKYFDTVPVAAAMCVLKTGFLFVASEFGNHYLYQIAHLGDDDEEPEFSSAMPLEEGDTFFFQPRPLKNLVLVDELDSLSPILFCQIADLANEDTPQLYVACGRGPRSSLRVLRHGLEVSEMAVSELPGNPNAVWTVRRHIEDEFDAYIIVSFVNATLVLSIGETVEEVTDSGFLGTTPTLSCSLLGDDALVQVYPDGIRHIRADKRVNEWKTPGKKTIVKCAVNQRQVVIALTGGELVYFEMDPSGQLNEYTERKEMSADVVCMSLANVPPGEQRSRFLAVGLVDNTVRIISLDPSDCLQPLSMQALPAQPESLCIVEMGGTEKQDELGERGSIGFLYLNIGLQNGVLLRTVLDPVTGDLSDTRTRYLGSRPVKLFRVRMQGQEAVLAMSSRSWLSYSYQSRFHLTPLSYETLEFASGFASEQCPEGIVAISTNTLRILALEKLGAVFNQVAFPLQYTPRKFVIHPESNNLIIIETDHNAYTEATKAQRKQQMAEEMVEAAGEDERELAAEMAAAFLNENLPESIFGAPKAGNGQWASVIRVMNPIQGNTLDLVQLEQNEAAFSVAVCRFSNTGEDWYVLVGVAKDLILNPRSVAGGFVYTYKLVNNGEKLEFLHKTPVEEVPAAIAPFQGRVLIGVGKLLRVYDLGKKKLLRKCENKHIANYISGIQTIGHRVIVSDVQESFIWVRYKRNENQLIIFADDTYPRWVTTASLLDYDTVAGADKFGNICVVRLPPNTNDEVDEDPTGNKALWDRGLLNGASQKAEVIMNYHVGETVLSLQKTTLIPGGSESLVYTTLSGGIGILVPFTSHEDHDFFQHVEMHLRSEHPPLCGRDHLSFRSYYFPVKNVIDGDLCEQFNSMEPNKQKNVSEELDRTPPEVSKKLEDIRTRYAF
UniProt Q16774: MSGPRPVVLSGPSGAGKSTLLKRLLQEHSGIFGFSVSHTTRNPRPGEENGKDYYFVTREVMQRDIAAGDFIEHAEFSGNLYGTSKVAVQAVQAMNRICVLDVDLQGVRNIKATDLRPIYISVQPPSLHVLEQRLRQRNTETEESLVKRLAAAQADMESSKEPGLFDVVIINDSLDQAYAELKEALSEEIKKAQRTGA
UniProt Q9H4G4: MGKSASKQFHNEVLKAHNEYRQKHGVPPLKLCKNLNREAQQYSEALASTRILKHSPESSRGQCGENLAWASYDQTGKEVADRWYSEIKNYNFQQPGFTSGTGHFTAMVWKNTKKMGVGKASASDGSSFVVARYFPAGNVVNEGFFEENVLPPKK
UniProt Q7Z6V5: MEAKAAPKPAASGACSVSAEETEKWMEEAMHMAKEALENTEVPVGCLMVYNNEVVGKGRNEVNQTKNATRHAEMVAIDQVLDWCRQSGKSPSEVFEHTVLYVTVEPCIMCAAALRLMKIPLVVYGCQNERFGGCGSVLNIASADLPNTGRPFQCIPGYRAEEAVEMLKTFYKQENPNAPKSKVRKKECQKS
UniProt Q9NY93: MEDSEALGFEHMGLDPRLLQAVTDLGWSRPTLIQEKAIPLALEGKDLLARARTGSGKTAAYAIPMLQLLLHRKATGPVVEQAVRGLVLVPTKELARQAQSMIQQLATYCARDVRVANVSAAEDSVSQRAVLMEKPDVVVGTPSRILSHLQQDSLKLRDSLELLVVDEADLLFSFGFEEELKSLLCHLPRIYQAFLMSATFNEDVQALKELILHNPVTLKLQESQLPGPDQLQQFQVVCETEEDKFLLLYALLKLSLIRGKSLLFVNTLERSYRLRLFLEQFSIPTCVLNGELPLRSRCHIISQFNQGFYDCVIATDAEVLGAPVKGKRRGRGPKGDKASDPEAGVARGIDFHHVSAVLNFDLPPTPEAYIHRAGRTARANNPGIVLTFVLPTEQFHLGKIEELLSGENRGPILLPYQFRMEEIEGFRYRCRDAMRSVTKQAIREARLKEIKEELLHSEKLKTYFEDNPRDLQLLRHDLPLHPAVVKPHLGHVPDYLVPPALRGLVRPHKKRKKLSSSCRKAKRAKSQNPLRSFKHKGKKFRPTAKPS
UniProt O75391: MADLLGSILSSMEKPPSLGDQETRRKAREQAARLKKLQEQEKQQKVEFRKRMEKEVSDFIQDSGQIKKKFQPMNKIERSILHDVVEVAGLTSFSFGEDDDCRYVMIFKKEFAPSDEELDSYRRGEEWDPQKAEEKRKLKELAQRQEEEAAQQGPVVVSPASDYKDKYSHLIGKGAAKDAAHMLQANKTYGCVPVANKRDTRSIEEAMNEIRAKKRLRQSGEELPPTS
UniProt Q9NPJ6: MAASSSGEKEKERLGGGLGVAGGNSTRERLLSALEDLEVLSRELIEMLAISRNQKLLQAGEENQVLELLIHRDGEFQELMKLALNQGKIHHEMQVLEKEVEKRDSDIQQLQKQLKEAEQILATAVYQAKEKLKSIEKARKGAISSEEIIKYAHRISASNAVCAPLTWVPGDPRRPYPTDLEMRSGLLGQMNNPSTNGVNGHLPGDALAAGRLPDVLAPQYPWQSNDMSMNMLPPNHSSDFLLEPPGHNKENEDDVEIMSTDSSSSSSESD
UniProt Q96MH7: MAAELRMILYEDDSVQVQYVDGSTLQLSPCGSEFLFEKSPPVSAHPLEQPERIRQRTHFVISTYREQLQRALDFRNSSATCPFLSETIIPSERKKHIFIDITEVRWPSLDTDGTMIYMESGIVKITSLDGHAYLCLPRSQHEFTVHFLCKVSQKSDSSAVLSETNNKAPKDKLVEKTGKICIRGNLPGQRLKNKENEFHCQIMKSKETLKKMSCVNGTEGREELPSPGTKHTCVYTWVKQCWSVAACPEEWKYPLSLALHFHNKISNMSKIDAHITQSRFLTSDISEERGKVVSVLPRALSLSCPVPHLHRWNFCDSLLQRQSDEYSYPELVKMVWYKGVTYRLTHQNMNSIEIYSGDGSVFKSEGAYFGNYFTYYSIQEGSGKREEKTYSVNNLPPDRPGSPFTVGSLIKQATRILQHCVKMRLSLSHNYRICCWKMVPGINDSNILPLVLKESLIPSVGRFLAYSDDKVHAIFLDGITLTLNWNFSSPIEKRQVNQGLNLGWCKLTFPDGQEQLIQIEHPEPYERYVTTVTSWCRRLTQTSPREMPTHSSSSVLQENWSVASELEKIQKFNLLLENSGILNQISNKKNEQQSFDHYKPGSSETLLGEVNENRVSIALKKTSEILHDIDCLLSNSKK
UniProt P08559, whole entry: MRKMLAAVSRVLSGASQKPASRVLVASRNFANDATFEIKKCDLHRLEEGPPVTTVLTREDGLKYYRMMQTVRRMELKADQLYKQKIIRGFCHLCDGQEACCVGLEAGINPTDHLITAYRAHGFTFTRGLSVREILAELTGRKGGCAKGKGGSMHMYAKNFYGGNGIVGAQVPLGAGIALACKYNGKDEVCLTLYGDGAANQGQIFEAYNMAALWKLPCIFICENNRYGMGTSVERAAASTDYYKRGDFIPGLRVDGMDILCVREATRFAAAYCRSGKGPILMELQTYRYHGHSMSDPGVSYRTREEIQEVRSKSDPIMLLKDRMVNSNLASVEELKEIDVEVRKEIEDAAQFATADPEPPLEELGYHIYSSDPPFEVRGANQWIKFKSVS
UniProt Q6P9F7: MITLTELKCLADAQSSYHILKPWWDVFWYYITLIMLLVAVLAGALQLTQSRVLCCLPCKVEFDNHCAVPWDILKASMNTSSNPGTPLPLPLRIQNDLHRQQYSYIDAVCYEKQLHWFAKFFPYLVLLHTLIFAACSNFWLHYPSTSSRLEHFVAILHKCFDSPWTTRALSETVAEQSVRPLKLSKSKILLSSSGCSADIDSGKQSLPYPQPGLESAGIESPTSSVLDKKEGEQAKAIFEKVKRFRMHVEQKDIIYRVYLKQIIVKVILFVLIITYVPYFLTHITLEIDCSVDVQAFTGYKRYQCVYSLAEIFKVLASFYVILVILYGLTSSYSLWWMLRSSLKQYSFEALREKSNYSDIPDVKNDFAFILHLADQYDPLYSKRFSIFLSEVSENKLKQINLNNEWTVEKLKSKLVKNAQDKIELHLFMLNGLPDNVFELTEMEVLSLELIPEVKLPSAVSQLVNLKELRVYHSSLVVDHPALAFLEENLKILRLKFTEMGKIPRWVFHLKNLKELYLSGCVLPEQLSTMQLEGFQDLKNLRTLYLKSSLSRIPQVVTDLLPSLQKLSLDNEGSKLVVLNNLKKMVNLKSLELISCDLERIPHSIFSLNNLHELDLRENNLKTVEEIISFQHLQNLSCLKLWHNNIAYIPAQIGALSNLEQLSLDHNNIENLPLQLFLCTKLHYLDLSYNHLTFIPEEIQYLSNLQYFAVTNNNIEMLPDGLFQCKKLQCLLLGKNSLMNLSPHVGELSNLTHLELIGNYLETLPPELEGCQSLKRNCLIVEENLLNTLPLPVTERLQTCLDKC
UniProt Q8TAA9: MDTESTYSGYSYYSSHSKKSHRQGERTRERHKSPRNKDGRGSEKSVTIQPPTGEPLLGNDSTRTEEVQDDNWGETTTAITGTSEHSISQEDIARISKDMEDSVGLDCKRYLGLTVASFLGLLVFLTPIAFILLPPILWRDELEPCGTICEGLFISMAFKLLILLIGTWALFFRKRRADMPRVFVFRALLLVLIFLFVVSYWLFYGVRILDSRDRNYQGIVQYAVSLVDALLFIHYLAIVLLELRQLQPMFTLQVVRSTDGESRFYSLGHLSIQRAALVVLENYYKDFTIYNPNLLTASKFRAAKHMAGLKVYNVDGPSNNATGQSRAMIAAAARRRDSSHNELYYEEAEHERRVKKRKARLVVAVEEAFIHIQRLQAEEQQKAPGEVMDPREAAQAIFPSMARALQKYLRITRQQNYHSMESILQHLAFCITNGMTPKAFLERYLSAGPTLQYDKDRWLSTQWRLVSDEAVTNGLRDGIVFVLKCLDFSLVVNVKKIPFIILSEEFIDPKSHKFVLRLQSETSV
UniProt Q8TDP1: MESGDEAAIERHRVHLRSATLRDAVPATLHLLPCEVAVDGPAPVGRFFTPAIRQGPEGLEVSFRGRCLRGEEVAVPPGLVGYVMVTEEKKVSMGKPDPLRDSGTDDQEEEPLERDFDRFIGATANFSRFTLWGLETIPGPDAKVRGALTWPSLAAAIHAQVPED

[1] = system: DAOY cell lysate, treatment time: 20 min, 4 °C
[2] = system: intact DAOY cells, treatment time: 90 min, 37 °C

Target | melting temperature shift [1] | melting temperature shift [2]
DNAJB4 (UniProt Q9UDY4) | -0.65 °C | -0.193 °C
FAM103A1 (UniProt Q9BTL3) | -4.11 °C | -0.961 °C
COG7 (UniProt P83436) | -0.271 °C | -0.885 °C
UniProt Q14728 | 1.97 °C | 0.843 °C
DNA2 (UniProt P51530) | 0.0919 °C | 
NMT1 (UniProt P30419) | -0.157 °C | -0.694 °C
RPL22L1 (UniProt Q6P5R6) | 0.604 °C | 
HCK (UniProt P08631) |  | 0.345 °C
UniProt Q6UWU4 | 0.495 °C | -3.98 °C
RALBP1 (UniProt Q15311) | -0.455 °C | 1.01 °C
PPP4R2 (UniProt Q9NY27) | -0.992 °C | -0.105 °C
MAP4K5 (UniProt Q9Y4K4) | -0.0915 °C | -0.0104 °C
UniProt Q96PQ5 |  | -0.38 °C
RPS26 (UniProt P62854) | 0.321 °C | -0.528 °C
COQ3 (UniProt Q9NZJ6) | 0.749 °C | -0.348 °C
LARS2 (UniProt Q15031) | -1.57 °C | -0.969 °C
ARPC3 (UniProt O15145) | -0.265 °C | 0.565 °C
UniProt Q9H427 |  | -0.156 °C
DENND4C (UniProt Q5VZ89) | 0.849 °C | 
CDC40 (UniProt O60508) | 1.16 °C | 0.734 °C
CLCN3 (UniProt P51790) | -4.48 °C | 
UniProt Q9BTT4 | -1.82 °C | 
TOP2B (UniProt Q02880) | 1.89 °C | -0.399 °C

Target | melting temperature shift [1] | melting temperature shift [2]
SF3B3 (UniProt Q15393) | -0.195 °C | 0.947 °C
UniProt Q9H334 | 0.468 °C | 0.347 °C
SSU72 (UniProt Q9NP77) | -1.05 °C | 0.867 °C
TIMM17B (UniProt O60830) | 0.0449 °C | -2.58 °C
ANXA8L1 (UniProt Q5VT79) | -0.438 °C | -0.468 °C
ABCD3 (UniProt P28288) | -1.42 °C | -2.2 °C
GUK1 (UniProt Q16774) | 0.527 °C | -0.929 °C
UniProt O43759 | 4.15 °C | 1.24 °C
SEC23IP (UniProt Q9Y6Y8) | 0.441 °C | 0.0166 °C
TOR1B (UniProt O14657) | 0.537 °C | 
NADK2 (UniProt Q4G0N4) | -0.507 °C | -0.504 °C
UniProt Q9H4G4 | 0.863 °C | -0.61 °C
POMGNT1 (UniProt Q8WZA1) | -0.845 °C | 
IK (UniProt Q13123) | -0.0111 °C | -0.568 °C
UHRF1BP1L (UniProt A0JNW5) | 0.0213 °C | 
ADAT2 (UniProt Q7Z6V5) | 0.119 °C | -2.89 °C
COMMD3 (UniProt Q9UBI1) | -0.0505 °C | 0.0424 °C
ARL1 (UniProt P40616) | -0.071 °C | -1.68 °C
UniProt Q96PV6 | 1.64 °C | 
RRBP1 (UniProt Q9P2E9) | 1.55 °C | -0.332 °C
BDH2 (UniProt Q9BUT1) |  | 1.39 °C
TBL2 (UniProt Q9Y4P3) | 1.54 °C | 0.0156 °C
VKORC1L1 (UniProt Q8N0U8) | 5.46 °C | 

Target | melting temperature shift [1] | melting temperature shift [2]
ZNF217 (UniProt O75362) | -0.452 °C | -0.418 °C
EIF2B2 (UniProt P49770) | -0.464 °C | -0.303 °C
AKR1A1 (UniProt P14550) | -0.804 °C | 0.453 °C
NRBP1 (UniProt Q9UHY1) | -0.597 °C | 0.381 °C
UniProt Q9NP31 | 0.121 °C | 
ERLIN1 (UniProt O75477) | 2.41 °C | -0.00282 °C
DDX56 (UniProt Q9NY93) | 0.084 °C | -0.235 °C
ABCC4 (UniProt O15439) | -0.369 °C | 0.206 °C
UniProt Q9P0P8 | -3.08 °C | -0.691 °C
SENP6 (UniProt Q9GZR1) | 0.769 °C | 
MTOR (UniProt P42345) | -0.71 °C | 3.01 °C
TSSC4 (UniProt Q9Y5U2) | 2.61 °C | 
CDC25C (UniProt P30307) | 1.34 °C | -0.117 °C
MTX3 (UniProt Q5HYI7) | -1.76 °C | 0.811 °C
SCAMP3 (UniProt O14828) | 1.4 °C | 0.901 °C
GOT2 (UniProt P00505) |  | -0.412 °C
SPAG7 (UniProt O75391) | 1.88 °C | 
LEMD3 (UniProt Q9Y2U8) | -4.7 °C | -0.127 °C
YIPF5 (UniProt Q969M3) | 2.44 °C | -2.11 °C
UniProt Q99958 | 0.235 °C | -1.33 °C
SNX12 (UniProt Q9UMY4) | -0.398 °C | -0.557 °C
UniProt O95864 | 2.12 °C | -1.29 °C
UniProt Q8IVE0 |  | -1.79 °C

Target | melting temperature shift [1] | melting temperature shift [2]
UniProt Q9Y5W7 | -0.78 °C | 0.862 °C
MED4 (UniProt Q9NPJ6) | -0.574 °C | -0.548 °C
TARSL2 (UniProt A2RTX5) |  | 1.28 °C
UBE2L3 (UniProt P68036) | -1.31 °C | -0.548 °C
FIS1 (UniProt Q9Y3D6) | 0.644 °C | 
CCDC25 (UniProt Q86WR0) | -0.218 °C | 0.396 °C
CCDC9 (UniProt Q9Y3X0) | -1.3 °C | 
WNK2 (UniProt Q9Y3S1) |  | 0.347 °C
UniProt P50225 | -1.02 °C | 1.34 °C
APIP (UniProt Q96GX9) | -2.45 °C | 
SHCBP1 (UniProt Q8NEM2) | -0.647 °C | 0.609 °C
ANKFY1 (UniProt Q9P2R3) | -1.07 °C | -0.184 °C
ZC3H11A (UniProt O75152) | -0.00121 °C | -3.61 °C
UQCC1 (UniProt Q9NVA1) | 0.541 °C | 
ECI2 (UniProt O75521) | 0.858 °C | -1.8 °C
ANP32A (UniProt P39687) | -2.35 °C | 0.705 °C
ARL3 (UniProt P36405) | -2.57 °C | -0.915 °C
UniProt O43463 | 0.377 °C | 0.748 °C
UniProt Q96MH7 |  | -1.82 °C
PDHA1 (UniProt P08559) | 0.18 °C | -0.833 °C
UniProt Q6P9F7 |  | -1.93 °C
UniProt Q8IVV7 | 0.699 °C | 0.09 °C
GLO1 (UniProt Q04760) | -1.06 °C | 0.925 °C

Reprinted at random: five records from the list.
Target | melting temperature shift [1] | melting temperature shift [2]
MTOR (UniProt P42345) | -0.71 °C | 3.01 °C
RPL22L1 (UniProt Q6P5R6) | 0.604 °C | 
WNK2 (UniProt Q9Y3S1) |  | 0.347 °C
UniProt Q9H334 | 0.468 °C | 0.347 °C
UniProt Q8IVE0 |  | -1.79 °C

The list goes on:

Target | melting temperature shift [1] | melting temperature shift [2]
MPZL1 (UniProt O95297) | 3.16 °C | 
ATP5B (UniProt P06576) | 1.48 °C | -0.411 °C
NAXE (UniProt Q8NCW5) | -0.691 °C | -1.15 °C
ZNHIT2 (UniProt Q9UHR6) | 1.51 °C | 1.67 °C
TAF15 (UniProt Q92804) | 1.83 °C | 
IPO9 (UniProt Q96P70) | -1.63 °C | 0.567 °C
MAN2A1 (UniProt Q16706) | 1.11 °C | -0.0918 °C
INPP5A (UniProt Q14642) | 2.09 °C | 
UniProt Q5VYK3 | -0.61 °C | -0.446 °C
RABIF (UniProt P47224) | -0.532 °C | -1.48 °C
CSTF2 (UniProt P33240) | -0.874 °C | -2.03 °C
TMEM245 (UniProt Q9H330) | 0.298 °C | -0.887 °C
VANGL1 (UniProt Q8TAA9) | 1.28 °C | -0.858 °C
RNASEH2C (UniProt Q8TDP1) | -0.951 °C | 0.0444 °C
UniProt A6NDB9 | 9.04 °C | 
UniProt Q6P1J6 | -0.0148 °C | 
CYB5R3 (UniProt P00387) | 0.851 °C | -0.403 °C
POU2F1 (UniProt P14859) | -0.0648 °C | -1.12 °C
ATM (UniProt Q13315) | -0.273 °C | -0.954 °C
VARS2 (UniProt Q5ST30) | 3.49 °C | -0.302 °C
